Source: PubChem BioAssay AID1688 (National Center for Advancing Translational Sciences (NCATS), 2009)
Several values for one entry are separate records, joined by “and”; a condition that tells them apart may be missing. Equal values may be shown once. About 2,400 (1.1%) of roughly 220,000 compounds were called active. Inconclusive means that the source gave no clear call. Such entries were picked first, then a sample of the others. Calls follow the shape of the dose curve; as a rule, active = well fitted inhibition curve with a large enough effect; inconclusive = small, poorly fitted or top-dose-only effect, or effect the other way; inactive = no such curve, though single readings can be large or run the other way. Potencies beside an inconclusive call are fits to weak or partial responses and may not hold up.

assay: qHTS Multiplex Assay to Identify Dual Action Probes in a Cell Model of Huntington: Aggregate Formation (GFP); conditions: PC12 HttQ103-GFP aggregates, Acumen cytometry, 40 h; activity change, negative = inhibition: at 46.1 µM (top of the series) unless noted; also: nearly all actives have a fitted effect of over 60% in size
Summary of the method: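 Multiplexed with ATP-based cell death, this channel scores GFP aggregates in PC12 cells expressing inducible HTTex1-Q103-GFP. Induction used 100 nM tebufenozide; compounds were tested in concentration series.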
% is scaled to controls: 0 for no effect and ±100 for the full control effect; potency is read from the fitted curve at half-maximal effect.

Compound | Potency | activity change, negative = inhibition
O=C(Nc1ccccc1)Nc1nnc(Cc2ccc([N+](=O)[O-])cc2)s1 | inconclusive: 35.5 µM [activator, single point] | 
CSc1nnc2c3cc(C)ccc3n(Cc3ccccc3)c2n1 | inactive | 
COc1ccc(CNC(=O)CSc2ncn[nH]2)cc1 | inconclusive: 10 µM [inhibitor, partial curve] | 
COCC(C)OC(=O)C(C#N)c1nc2ccccc2nc1N1CCN(Cc2ccccc2)CC1 (stereo not drawn) | inconclusive: 35.5 µM [inhibitor, single point] | 
CCOC(=O)c1c(C)[nH]c(N=Nc2ccccc2C)c1C | inactive | 
COc1ccc(NC(=O)Cn2cnc3sc(C)c(S(=O)(=O)N4CCN(C)CC4)c3c2=O)cc1OC | inactive | 
C=CCn1c(CNC(=O)c2cccs2)nnc1SCC(=O)Nc1ccc(C(=O)O)cc1 | inconclusive: 0.0891 µM [inhibitor, full curve, poor fit] | 
COc1ccc(C(=O)n2cc(C(=O)c3cc(C)ccc3O)cn2)cc1 | active: 31.6 µM | 
C/C(CCCO)=N/Nc1ccc([N+](=O)[O-])cc1[N+](=O)[O-] | inconclusive: 12.6 µM [inhibitor, partial curve] | 
O=C(Cc1cccs1)Nc1nnc(-c2ccncc2)s1 | inconclusive: 7.08 µM [inhibitor, full curve, poor fit] | 
Cc1cc(C(F)(F)F)n2nc(C(=O)O)c(Cl)c2n1 | inactive | 
Cc1ccc(NS(=O)(=O)c2cccc(C(=O)Nc3c(C)n(C)n(-c4ccccc4)c3=O)c2)cc1 |  | inactive: 6.9% [at 9.22 µM]
O=C1C=C(N2CCN(C(=O)c3ccccc3)CC2)C2(CCCCC2)O1 | inconclusive: 35.5 µM [inhibitor, single point] | 
COc1cc(C2NC(=S)NC(C)=C2C(=O)Nc2ccc(C)cc2)ccc1O (stereo not drawn) |  | inactive: -12% [at 9.22 µM]
COc1ccccc1NS(=O)(=O)c1cccc(C(=O)NN=C2CCCCCC2)c1 | inactive | 
CCOc1ccc(C(=O)N/N=C(\c2ccccc2)c2ccccn2)cc1 | inconclusive: 2.82 µM [inhibitor, full curve] | 
O=C(CC1N=C2c3ccccc3N=C(SCc3ccccc3Cl)N2C1=O)NCc1ccco1 (stereo not drawn) | inconclusive: 14.1 µM [activator, single point] | 
CCC(c1nnnn1Cc1ccc(F)cc1)N1CCN(C)CC1 (stereo not drawn) | inconclusive: 4.47 µM [inhibitor, single point] | 
Cc1cccc(C(=O)NNC2=C(C(=O)C(F)(F)F)CCC2)c1O | inconclusive: 35.5 µM [inhibitor, single point] | 
CCN(CC)CCNC(=O)c1cc(Sc2nnc(C)s2)nc2ccccc12 | inactive | 
COc1ccc(-c2cn(-c3ccccc3)c3[n+]2CCS3)cc1 | inconclusive: 11.2 µM [inhibitor, single point] and inconclusive: 891 nM [inhibitor, full curve] | 
O=C(c1ccc(S(=O)(=O)NCC2CCCO2)cc1)N1CCN(c2cccc(Cl)c2)CC1 (stereo not drawn) | inconclusive: 6.31 µM [inhibitor, partial curve] | 

Compound | Potency | activity change, negative = inhibition
COc1ccc2c(c1)CCc1c(C(=O)NCC(C)C)noc1-2 | inconclusive: 3.98 µM [inhibitor, single point] | 
Cc1cccc(NC(=S)NC(NC(=O)OCc2ccccc2)C(Cl)(Cl)Cl)c1 (stereo not drawn) | inconclusive: 12.6 µM [inhibitor, single point] | 
Cc1[nH]c2ccccc2c1C(=O)CN1C(=O)C(=O)N(Cc2ccco2)C1=O | inconclusive: 0.794 µM [inhibitor, single point] | 
Cc1c(C(=O)NNC(=S)Nc2cccc(Cl)c2)nnn1-c1ccccc1 | inconclusive: 35.5 µM [inhibitor, single point] | 
Cc1ccc(C)c(S(=O)(=O)NCc2ccncc2)c1 | active: 10 µM | 
CCC(CC)c1nnc(NC(=O)c2cccc(S(=O)(=O)N3CCc4ccccc43)c2)s1 | inconclusive: 35.5 µM [inhibitor, single point] | 
Cc1ccccc1NC(=O)c1ccc(CN2CCc3ccccc3C2)cc1 | inconclusive: 1.26 µM [activator, single point] | 
COc1ccccc1/C=C/CN1CCCC(CCC(=O)NCc2ccccc2F)C1 (stereo not drawn) |  | inactive: 10.5% [at 9.22 µM]
Cc1cc(C)c(NC(=O)Cn2nc(-c3ccccc3)nc2-c2ccccc2)c(C)c1 | inconclusive: 20 µM [activator, partial curve] | 
C(=N\Nc1nc2ccccc2[nH]1)/c1ccccn1 | active: 7.08 µM | 
Cc1ccc(Nc2nc(NCCCN3CCOCC3)nc(N)c2[N+](=O)[O-])cc1C | inconclusive: 10 µM [activator, partial curve] | 
N#CC1=C(N)NC(=S)C(C(N)=O)C1c1ccc([N+](=O)[O-])cc1 (stereo not drawn) | inconclusive: 35.5 µM [activator, single point] | 
CCOC(=O)N/N=C/c1ccc(OCCSc2ccc(Cl)cc2)c(OC)c1 | inactive | 
Cc1ccc(S(=O)(=O)NC(C(=O)Oc2ccc3c(C(F)(F)F)cc(=O)oc3c2)c2ccccc2)cc1 (stereo not drawn) | inactive | 
O=C(O)C(=O)/C(=C\c1cccc2ccccc12)c1ccc2ccccc2n1 | inconclusive: 17.8 µM [activator, single point] | 
Cc1ccc(OCC(=O)N2CCN(c3nnc(-c4ccccc4)c4ccccc34)CC2)cc1 | inconclusive: 35.5 µM [inhibitor, single point] | 
CC1(C)CC(=O)C2=C(C1)Nc1cc3c(cc1C2c1ccc(F)cc1)OCO3 (stereo not drawn) | inconclusive: 1.26 µM [inhibitor, single point] | 
O=C(Nc1ccc(F)cc1)C(c1ccccc1)N1CCN(S(=O)(=O)c2ccc3ccccc3c2)CC1 (stereo not drawn) | inactive | 
O=C(Nc1nc(-c2ccccc2)c(-c2ccccc2)o1)c1ccc(F)cc1 | inconclusive: 11.2 µM [inhibitor, partial curve] | 
CC(=O)Oc1ccc2nc(CN3C(=O)c4ccc([N+](=O)[O-])cc4C3=O)oc(=O)c2c1 | inconclusive: 2.82 µM [activator, single point] | 
O=C(CCC(=O)N/N=C/c1ccccc1O)NCc1ccccc1 | active: 10 µM | 

Ordered by molar mass (low to high): twelve of the compounds above.
Compound | Potency | activity change, negative = inhibition
COc1ccc2c(c1)CCc1c(C(=O)NCC(C)C)noc1-2 | inconclusive: 3.98 µM [inhibitor, single point] | 
O=C(O)C(=O)/C(=C\c1cccc2ccccc12)c1ccc2ccccc2n1 | inconclusive: 17.8 µM [activator, single point] | 
Cc1[nH]c2ccccc2c1C(=O)CN1C(=O)C(=O)N(Cc2ccco2)C1=O | inconclusive: 0.794 µM [inhibitor, single point] | 
Cc1cc(C)c(NC(=O)Cn2nc(-c3ccccc3)nc2-c2ccccc2)c(C)c1 | inconclusive: 20 µM [activator, partial curve] | 
Cc1ccc(Nc2nc(NCCCN3CCOCC3)nc(N)c2[N+](=O)[O-])cc1C | inconclusive: 10 µM [activator, partial curve] | 
CC(=O)Oc1ccc2nc(CN3C(=O)c4ccc([N+](=O)[O-])cc4C3=O)oc(=O)c2c1 | inconclusive: 2.82 µM [activator, single point] | 
COc1ccccc1/C=C/CN1CCCC(CCC(=O)NCc2ccccc2F)C1 (stereo not drawn) |  | inactive: 10.5% [at 9.22 µM]
Cc1ccc(OCC(=O)N2CCN(c3nnc(-c4ccccc4)c4ccccc34)CC2)cc1 | inconclusive: 35.5 µM [inhibitor, single point] | 
Cc1cccc(NC(=S)NC(NC(=O)OCc2ccccc2)C(Cl)(Cl)Cl)c1 (stereo not drawn) | inconclusive: 12.6 µM [inhibitor, single point] | 
CCC(CC)c1nnc(NC(=O)c2cccc(S(=O)(=O)N3CCc4ccccc43)c2)s1 | inconclusive: 35.5 µM [inhibitor, single point] | 
O=C(Nc1ccc(F)cc1)C(c1ccccc1)N1CCN(S(=O)(=O)c2ccc3ccccc3c2)CC1 (stereo not drawn) | inactive | 
Cc1ccc(S(=O)(=O)NC(C(=O)Oc2ccc3c(C(F)(F)F)cc(=O)oc3c2)c2ccccc2)cc1 (stereo not drawn) | inactive | 
